Assay results taken from patent US12673953B2, “Process for preparing an amorphous form of 2-[3-[4-amino-3-(2-fluoro-4-phenoxyphenyl)pyrazolo[3,4-d]pyrimidin-1-yl]piperidine-1-carbonyl]-4-methyl-4-[4-(oxetan-3-yl)piperazin-1-yl]pent-2-enenitrile” (Principia Biopharma Inc., priority 2019, dated 2026).
Like-named read-outs stand apart in the source and are kept apart here.

Assay: Residual solvent analysis by gas chromatography-mass spectrometry
Format: physicochemical
Text: Retention of process solvents (i.e., residual solvents) depends on van der Waals' forces that are unique to and an inherent property of each molecule. Additionally, solvent retention depends how the API solid is formed, isolated, washed, and dried (i.e., during the manufacturing process). Because residual solvents may pose safety risks, pharmaceutical processes should be designed to minimize residual solvent levels (e.g., to result in residual solvent levels below the limits established in the ICH guidelines). Residual solvent analysis was performed using gas chromatography-mass spectrometry. The residual solvent levels in solid forms of Compound (I) prepared by spray drying processes described herein and precipitation processes described herein are provided in Table 2.

[1] = listed as Compound (I) produced by a spray drying process described herein
[2] = result in words, Example 3 Precipitation Process A

SMILES	Residual solvent level: Heptane (n-Heptane)	Residual solvent level: Isopropyl acetate	Residual solvent level: Methanol (result in words)	further results
CC(C)(C=C(C#N)C(=O)N1CCCC(n2nc(-c3ccc(Oc4ccccc4)cc3F)c3c(N)ncnc32)C1)N1CCN(C2COC2)CC1 (stereo not shown) [Compound (I) free base, 2-[3-[4-amino-3-(2-fluoro-4-phenoxy-phenyl)pyrazolo[3,4-d]pyrimidin-1-yl]piperidine-1-carbonyl]-4-methyl-4-[4-(oxetan-3-yl)piperazin-1-yl]pent-2-enenitrile]	< 0.05%	below 0.5%	–	–
CC(C)(C=C(C#N)C(=O)N1CCCC(n2nc(-c3ccc(Oc4ccccc4)cc3F)c3c(N)ncnc32)C1)N1CCN(C2COC2)CC1 (stereo not shown) [Compound (I) prepared by a spray drying process described he] [2-[3-[4-amino-3-(2-fluoro-4-phenoxy-phenyl)pyrazolo[3,4-d]pyrimidin-1-yl]piperidine-1-carbonyl]-4-methyl-4-[4-(oxetan-3-yl)piperazin-1-yl]pent-2-enenitrile]	–	–	–	Residual solvent level: Methanol: 302 ppm; Residual solvent level: Heptane (n-Heptane) [1]: 426 ppm; Residual solvent level: Isopropyl acetate [1]: 3081 ppm
CC(C)(C=C(C#N)C(=O)N1CCCC(n2nc(-c3ccc(Oc4ccccc4)cc3F)c3c(N)ncnc32)C1)N1CCN(C2COC2)CC1 (stereo not shown) [Compound (I) produced by a precipitation process described h] [2-[3-[4-amino-3-(2-fluoro-4-phenoxy-phenyl)pyrazolo[3,4-d]pyrimidin-1-yl]piperidine-1-carbonyl]-4-methyl-4-[4-(oxetan-3-yl)piperazin-1-yl]pent-2-enenitrile]	<500 ppm	<500 ppm	None	–
CC(C)(C=C(C#N)C(=O)N1CCCC(n2nc(-c3ccc(Oc4ccccc4)cc3F)c3c(N)ncnc32)C1)N1CCN(C2COC2)CC1 (stereo not shown) [crude Compound (I) (before spray drying), 2-[3-[4-amino-3-(2-fluoro-4-phenoxy-phenyl)pyrazolo[3,4-d]pyrimidin-1-yl]piperidine-1-carbonyl]-4-methyl-4-[4-(oxetan-3-yl)piperazin-1-yl]pent-2-enenitrile]	5.00%	2.00%	None	–
CC(C)(C=C(C#N)C(=O)N1CCCC(n2nc(-c3ccc(Oc4ccccc4)cc3F)c3c(N)ncnc32)C1)N1CCN(C2COC2)CC1 (stereo not shown) [free base of Compound (I), 2-[3-[4-amino-3-(2-fluoro-4-phenoxy-phenyl)pyrazolo[3,4-d]pyrimidin-1-yl]piperidine-1-carbonyl]-4-methyl-4-[4-(oxetan-3-yl)piperazin-1-yl]pent-2-enenitrile]	–	–	–	Residual solvent level: Isopropyl acetate [2]: no detectible levels; Residual solvent level: heptane [2]: no detectible levels
